At least one compound was matched to its structure with a doubt left. Where a SMILES comes first, the peptide text is derived from it.
Columns and labels:
[1] = target: T1, RNAP holoenzyme (Escherichia coli, UniProt P0A8T7); assay: Transcription assays (abortive initiation and elongation, lacUV5 promoter); assay type: biochemical; settings: partial-competitive model; 7-mer and 8-mer abortive products
T1 construct: RNAP holoenzyme was prepared from, strain XE54/pREII-NHα; made in house; host or cells: E. coli strain XE54/pREII-NHα
Experimental: MccJ25 interferes with a process common to both abortive initiation and elongation—i.e., NTP uptake, phosphodiester-bond formation, or translocation.
Following 15 min at 37° C., 0.5 μl 1 mg/ml heparin, was added, and, following a further 2 min at 37° C., RNA synthesis was initiated by addition of 2 μl 5 mM ApA and 125 μM (or 250 jiM, 500 μM, and 1 mM) each of [α-^32P]UTP (0.6 Bq/fmol), ATP, CTP, GTP. Following 5 min at 37° C., reactions were terminated by addition of 10 μl 80% formamide, 10 mM EDTA, 0.04% bromophenol blue, and 0.04% xylene cyanol. Products were heated 10 min at 90° C., resolved by urea-PAGE (Sambrook and Russell (2001). Molecular Cloning: A Laboratory Manual (Cold Spring Harbor, N.Y., Cold Spring Harbor Laboratory)), and quantified using an x/y storage-phosphor scanner (Storm 860; Molecular Dynamics, Inc.). Data were fit to full-competitive, partial-competitive, full-noncompetitive, partial-noncompetitive, full-uncompetitive, partial-uncompetitive, full-mixed, and partial-mixed models of inhibition using the Fit-To-Model feature of the SigmaPlot Enzyme Kinetics Module (SPSS, Inc.).

By UniProt entry, the sequences of proteins in these tests, tags left out.
UniProt P0A8T7, whole entry: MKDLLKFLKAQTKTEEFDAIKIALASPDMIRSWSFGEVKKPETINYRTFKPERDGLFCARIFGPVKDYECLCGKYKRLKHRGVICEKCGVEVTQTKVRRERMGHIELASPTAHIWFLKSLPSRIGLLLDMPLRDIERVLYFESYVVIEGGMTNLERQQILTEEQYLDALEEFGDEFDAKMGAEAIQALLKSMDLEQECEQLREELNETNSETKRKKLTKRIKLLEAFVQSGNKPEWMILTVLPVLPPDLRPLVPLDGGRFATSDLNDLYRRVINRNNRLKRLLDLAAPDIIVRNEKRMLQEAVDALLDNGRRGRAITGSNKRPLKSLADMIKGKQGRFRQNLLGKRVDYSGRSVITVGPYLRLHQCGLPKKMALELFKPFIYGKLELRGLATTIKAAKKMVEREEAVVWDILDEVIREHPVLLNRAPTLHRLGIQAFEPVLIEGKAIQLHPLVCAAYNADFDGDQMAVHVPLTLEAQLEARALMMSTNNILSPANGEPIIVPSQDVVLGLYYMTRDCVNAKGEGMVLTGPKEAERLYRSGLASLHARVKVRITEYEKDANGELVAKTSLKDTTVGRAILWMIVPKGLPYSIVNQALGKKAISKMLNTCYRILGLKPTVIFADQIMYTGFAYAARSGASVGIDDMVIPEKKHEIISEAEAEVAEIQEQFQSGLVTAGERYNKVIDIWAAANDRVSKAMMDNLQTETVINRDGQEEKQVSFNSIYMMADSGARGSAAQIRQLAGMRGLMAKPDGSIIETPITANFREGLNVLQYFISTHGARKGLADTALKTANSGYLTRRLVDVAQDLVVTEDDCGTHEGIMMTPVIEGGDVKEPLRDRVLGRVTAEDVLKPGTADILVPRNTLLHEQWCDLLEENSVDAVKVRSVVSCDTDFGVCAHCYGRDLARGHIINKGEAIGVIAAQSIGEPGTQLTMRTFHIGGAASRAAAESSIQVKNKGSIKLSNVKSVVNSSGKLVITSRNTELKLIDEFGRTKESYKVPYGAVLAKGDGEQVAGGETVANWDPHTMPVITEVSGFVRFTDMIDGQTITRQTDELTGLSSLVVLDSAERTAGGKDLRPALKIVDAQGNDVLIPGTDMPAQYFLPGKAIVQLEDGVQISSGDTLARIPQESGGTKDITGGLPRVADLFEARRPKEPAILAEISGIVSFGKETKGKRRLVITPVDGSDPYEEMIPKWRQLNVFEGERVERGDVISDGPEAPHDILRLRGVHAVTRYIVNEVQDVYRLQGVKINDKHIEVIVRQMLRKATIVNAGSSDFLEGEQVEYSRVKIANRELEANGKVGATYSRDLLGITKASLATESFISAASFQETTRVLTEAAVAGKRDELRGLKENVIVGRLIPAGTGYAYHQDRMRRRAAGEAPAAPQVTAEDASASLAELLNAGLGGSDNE

[2] = target: T1, RNAP holoenzyme; assay: Fluorescence-detected abortive initiation assays; assay type: biochemical; settings: partial-competitive model; 3-mer and 4-mer abortive products
Experimental: Following 15 min at 37° C. 0.5 μl mg/ml heparin was added, and, following a further 2 min at 37° C., 1 μl of 0.25-5 mM (y-AmNS)UTP (Molecular Probes, Inc.) was added, and reaction mixtures were transferred to sub-micro fluorometer cuvettes (Starna Cells, Inc.). Following 2 min at 37° C., RNA synthesis was initiated by addition of 2.5 μl 10 mM ApA, and fluorescence emission intensity was monitored 5 min at 37° C. [excitation wavelength=360 nm and emission wavelength=500 nm; excitation and emission slit widths=4 nm; QuantaMaster QM1 spectrofluororaeter (PTI, Inc).]. The quantity of UMP incorporated into RINA was determined from the quantity of (γ−AmNS)UTP consumed, which, in turn, was calculated as follows (Schlageck et al. 1979): (γ−AmNS)UTPconsumed=[(γ−AmNS)UTP0](Ft−F0)/(12.4×F0) where (γ−AmNS)UTP0 is the quantity of (γ−AmNS)UTP at time 0, F0 is the fluorescence emission intensity at time 0, and Ft is the fluorescence emission intensity at time t. Data were fit to full-competitive, partial-competitive, full-noncompetitive, partial-noncompetitive, full-uncompetitive, partial-uncompetitive, full-mixed, and partial-mixed models of inhibition as in the preceding section.

`CC[C@H](C)[C@H](NC(=O)CNC(=O)[C@@H](NC(=O)[C@H](Cc1ccccc1)NC(=O)[C@H](Cc1ccc(O)cc1)NC(=O)[C@@H]1CCC(=O)NCC(=O)NCC(=O)N[C@@H](C)C(=O)NCC(=O)N[C@@H](Cc2cnc[nH]2)C(=O)N[C@@H](C(C)C)C(=O)N2CCC[C@H]2C(=O)N1)C(C)C)C(=O)NCC(=O)N[C@H](C(=O)N1CCC[C@H]1C(=O)N[C@H](C(=O)N[C@@H](CO)C(=O)N[C@@H](Cc1ccccc1)C(=O)N[C@@H](Cc1ccc(O)cc1)C(=O)NCC(=O)O)[C@@H](C)CC)[C@@H](C)O` [MccJ25] (HELM PEPTIDE1{G.G.A.G.H.V.P.E.Y.F.V.G.I.G.T.P.I.S.F.Y.G}$PEPTIDE1,PEPTIDE1,1:R1-8:R3$$$V2.0) showed a Ki [1] of 1.4 ± 0.2 µM and a Ki [2] of 1.2 ± 0.3 µM.

Source: patent publication US8575306B2, “Target and method for inhibition of bacterial RNA polymerase” (Rutgers, The State University of New Jersey, priority 2002, dated 2013)
